PubChem BioAssay AID1259405 | NCATS – 2018

- Screen: 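Knock-downs that lift recombinant protein yield in hamster ovary cells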 (primary screen)
- System: Chinese hamster CHO-K1 ovary cells with stable secreted eGFP expression
- Reagent: single siRNA against mouse genes, 0.8 pmol siRNA per well (2 µl of 400 nM stock)
- Time to read-out: 3 days
- Measured: 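Percent of the per-plate non-targeting control median for intracellular GFP per well by laser scanning cytometry and for cell viability by ATP luminescence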
- Scale: GFP, % of control: higher = more GFP per well, higher productivity; viability (ATP), % of control: higher = more viable cells (more ATP)
- Rule for the call: 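Called active when intracellular GFP, relative to negative control, is at or above 120%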
Here is an unselected part of about 50,000 reagents tested. Over the whole deposit, about 4,000 (8%) got an active call. 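Mouse siRNA library applied to hamster cells; one well for each siRNA.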 A number with no mark means an inactive call. No sequences are given here.

For Or5p78 (GeneID 258215) [SID363544917], what was measured?
GFP, % of control: 331 (active); viability (ATP), % of control: 135

Which result is listed for Or5p78 (GeneID 258215) [SID363551245]?
GFP, % of control: 80.3; viability (ATP), % of control: 99.2

What is on record for Or5p78 (GeneID 258215) [SID363557794]?
GFP, % of control: 55.2; viability (ATP), % of control: 47.3

With Ssbp3 (GeneID 72475) [SID363545843], what does the deposit list?
GFP, % of control: 64.7; viability (ATP), % of control: 54.9

For Ssbp3 (GeneID 72475) [SID363549356], how do the results read?
GFP, % of control: 94.2; viability (ATP), % of control: 94.2

Which result is listed for Ssbp3 (GeneID 72475) [SID363563162]?
GFP, % of control: 80.6; viability (ATP), % of control: 61.9

What did the screen give for Nedd1 (GeneID 17997) [SID363562228]?
GFP, % of control: 80; viability (ATP), % of control: 87.6

For Nedd1 (GeneID 17997) [SID363567366], how do the results read?
GFP, % of control: 75.7; viability (ATP), % of control: 85.3

For Nedd1 (GeneID 17997) [SID363584723], what does the deposit list?
GFP, % of control: 78; viability (ATP), % of control: 66.9

Active calls, among the entries above:
Or5p78 (GeneID 258215) [SID363544917] → GFP, % of control = 331 (active); viability (ATP), % of control = 135

More results follow:
With Syne3 (GeneID 212073) [SID363542397], what was measured?
GFP, % of control: 93.2; viability (ATP), % of control: 120

What is on record for Syne3 (GeneID 212073) [SID363551888]?
GFP, % of control: 127 (active); viability (ATP), % of control: 115

What is on record for Syne3 (GeneID 212073) [SID363559493]?
GFP, % of control: 77.7; viability (ATP), % of control: 79.1

For Katnbl1 (GeneID 72425) [SID363543745], how do the results read?
GFP, % of control: 111; viability (ATP), % of control: 70.9

Which result is listed for Katnbl1 (GeneID 72425) [SID363551481]?
GFP, % of control: 125 (active); viability (ATP), % of control: 77.7

For Katnbl1 (GeneID 72425) [SID363559086], what was measured?
GFP, % of control: 62.1; viability (ATP), % of control: 60.2

How did the screen score Rplp2 (GeneID 67186) [SID363554042]?
GFP, % of control: 52.6; viability (ATP), % of control: 41.9

What is on record for Rplp2 (GeneID 67186) [SID363561999]?
GFP, % of control: 71.7; viability (ATP), % of control: 74.9

With Rplp2 (GeneID 67186) [SID363565737], what does the deposit list?
GFP, % of control: 35; viability (ATP), % of control: 29.9
